# Experimental data: PubChem BioAssay AID743121 (NCATS, 2013)
# Screen: 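Partners whose loss is lethal together with topoisomerase I blockade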 (primary screen)
# Cell system: MDA-MB-231 cells, a human breast cancer line
# Reagents: single siRNA against human genes, 20 nM siRNA (0.8 pmol per well)
# Time to read-out: 120 h (drug added 48 h after transfection, read 72 h later)
# Conditions: camptothecin 20 nM (about EC30) for 72 h; vehicle 0.1% DMSO in parallel plates
# Detection: 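CellTiter-Glo ATP signal, scaled to control siRNA as percent viability; sensitisation given as log2 of untreated divided by camptothecin-treated viability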
# Scale: log2 vehicle/camptothecin viability: higher = stronger sensitisation to camptothecin
# Hit rule: 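Each gene scored by redundant siRNA activity (RSA) over its individual siRNA ratios; a gene is called active at p < 0.001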
# This is a random part of about 26,000 reagents tested. 167 of them (0.63%) were called active. 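Calls are per gene from RSA p-values that are not deposited; an individual active-marked siRNA can sensitise only weakly.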 The numbers tell different reagents against one gene apart. Not all columns of the deposit are shown. No sequences are given here.
gene symbol,reagent no.,log2 vehicle/camptothecin viability,call
RNF113A,1,-0.00451,inactive
RNF113A,2,1.9,inactive
RNF113A,3,0.101,inactive
RNF113A,4,-0.335,inactive
PPM1G,1,-0.432,inactive
PPM1G,2,-0.873,inactive
PPM1G,3,-0.048,inactive
PPM1G,4,0.228,inactive
STK16,1,0.161,inactive
STK16,2,-0.524,inactive
STK16,3,-0.245,inactive
STK16,4,-0.43,inactive
GUCY2C,1,-0.708,inactive
GUCY2C,2,-0.248,inactive
GUCY2C,3,0.0395,inactive
GUCY2C,4,-0.39,inactive
GUCY2C,5,-0.117,inactive
PFKL,1,-0.693,inactive
PFKL,2,-0.411,inactive
PFKL,3,0.354,inactive
PFKL,4,-0.199,inactive
CHRNB4,1,-0.189,inactive
CHRNB4,2,0.0124,inactive
CHRNB4,3,0.18,inactive
CHRNB4,4,0.142,inactive
NALCN,1,-0.357,inactive
NALCN,2,0.0522,inactive
NALCN,3,-0.0647,inactive
NALCN,4,0.0172,inactive

Continued; the last 4 above are carried over.
gene symbol,reagent no.,log2 vehicle/camptothecin viability,call
NALCN,1,-0.357,inactive
NALCN,2,0.0522,inactive
NALCN,3,-0.0647,inactive
NALCN,4,0.0172,inactive
KCND1,1,-0.119,inactive
KCND1,2,-0.156,inactive
KCND1,3,-0.38,inactive
KCND1,4,-0.351,inactive
MPRIP,1,0.21,inactive
MPRIP,2,-0.464,inactive
MPRIP,3,-0.554,inactive
MPRIP,4,-0.387,inactive
HCG22,1,-0.246,inactive
HCG22,2,0.0117,inactive
HCG22,3,-0.173,inactive
HCG22,4,-0.292,inactive
HES5,1,-0.0239,inactive
HES5,2,-0.0955,inactive
HES5,3,-0.45,inactive
ILDR1,1,-0.507,inactive
ILDR1,2,-0.335,inactive
ILDR1,3,0.0494,inactive
ILDR1,4,-0.27,inactive
